For some assays here: For at least one compound, name, drawing or mass did not settle the structure. Some entries share one result that the patent states for a list of compounds.
Columns and labels:
[1] = CO release from aldehydes in different media (TBHP, H2O2, rpmi, pH 2), gas chromatograph; settings: tested in TBHP, H2O2, rpmi and pH 2 solutions, 37° C.
[2] = system: adjuvant arthritis; assay: Anti-arthritic activity, adjuvant arthritis in Lewis rats; format: in vivo; settings: 100 and 25 mg/kg daily
[3] = system: adjuvant arthritis; assay: Anti-arthritic activity, adjuvant arthritis in Sprague-Dawley rats; format: in vivo; settings: 100 mg/kg/day intraperitoneal; maximum possible score 11; untreated above 8
Description: Adjuvant arthritis was induced in outbred Sprague-Dawley rats by intradermal injection into the subplantar area of the right hind paw of 0.1 ml of a 10 mg/ml suspension of Mycobacterium butyricum, killed and dried in Freund's incomplete adjuvant. Treatment was initiated 10 days after disease induction at the time of disease onset. Groups of 7 rats received intraperitoneal injections of compound 1 and compound 2 in 1 ml PBS, each at a dose of 100 mg/kg/day for 20 days. A control group of 7 rats received no treatment. Progression of arthritis was monitored by daily measurements of right and left paw volumes by a water displacement method using a plethysmometer, by daily measurements of the ankle circumference with a flexible strip, and by determination of the arthritic index based on levels of erythema and oedema of the entire paws and digits, number of joints involved, spondylosis, lesions on the tail, movement capacity and infections. The maximum possible score was 11.

SMILES	Media in which CO release was observed [1]	Day from which paw volume effect was significant [2] [days]	Arthritic index [3]
CC(=O)OCC(C)(C)C=O [compound 5, 2-formyl-2-methyl-propylmethanoate]	released CO only in TBHP solution		
CC(C)(C=O)c1ccccc1 [compound 7, 2-methyl-2-phenylpropionaldehyde]		≥ 28	
CC(C)(C)C=O [compound 1, trimethylacetaldehyde]		≥ 28	below 3
C=CCC(C)(C)C=O [compound 2, 2,2-dimethyl-4-pentenal]			below 3

Source: patent US7968605B2, “Methods for treating inflammatory disease by administering aldehydes and derivatives thereof” (ALFAMA—Investigação e Desenvolvimento de Produtos …, priority 2002, dated 2011)
